The supplement of paper PMC6411743
± gives the standard deviation of the averaged measurements. Only a part is listed here, and it is no random draw.

Chains of the proteins cited; added tags and fusions are not shown. Lines headed by an entry give the natural chain unless they say otherwise; changes in a name come on top.
UniProt P28070, whole entry: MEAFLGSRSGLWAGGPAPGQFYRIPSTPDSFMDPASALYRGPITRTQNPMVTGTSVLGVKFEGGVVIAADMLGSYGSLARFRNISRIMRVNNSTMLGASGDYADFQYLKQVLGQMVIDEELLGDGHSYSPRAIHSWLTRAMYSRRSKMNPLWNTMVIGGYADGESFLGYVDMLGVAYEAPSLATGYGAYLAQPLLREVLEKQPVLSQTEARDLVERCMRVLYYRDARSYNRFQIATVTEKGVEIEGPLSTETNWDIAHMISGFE
UniProt P28072: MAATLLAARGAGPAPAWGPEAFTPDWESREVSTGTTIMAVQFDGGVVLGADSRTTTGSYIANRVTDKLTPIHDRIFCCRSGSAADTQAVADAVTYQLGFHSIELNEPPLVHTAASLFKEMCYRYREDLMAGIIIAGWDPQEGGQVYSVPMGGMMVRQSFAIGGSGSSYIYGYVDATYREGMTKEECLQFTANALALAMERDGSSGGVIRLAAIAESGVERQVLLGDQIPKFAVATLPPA
UniProt P35573: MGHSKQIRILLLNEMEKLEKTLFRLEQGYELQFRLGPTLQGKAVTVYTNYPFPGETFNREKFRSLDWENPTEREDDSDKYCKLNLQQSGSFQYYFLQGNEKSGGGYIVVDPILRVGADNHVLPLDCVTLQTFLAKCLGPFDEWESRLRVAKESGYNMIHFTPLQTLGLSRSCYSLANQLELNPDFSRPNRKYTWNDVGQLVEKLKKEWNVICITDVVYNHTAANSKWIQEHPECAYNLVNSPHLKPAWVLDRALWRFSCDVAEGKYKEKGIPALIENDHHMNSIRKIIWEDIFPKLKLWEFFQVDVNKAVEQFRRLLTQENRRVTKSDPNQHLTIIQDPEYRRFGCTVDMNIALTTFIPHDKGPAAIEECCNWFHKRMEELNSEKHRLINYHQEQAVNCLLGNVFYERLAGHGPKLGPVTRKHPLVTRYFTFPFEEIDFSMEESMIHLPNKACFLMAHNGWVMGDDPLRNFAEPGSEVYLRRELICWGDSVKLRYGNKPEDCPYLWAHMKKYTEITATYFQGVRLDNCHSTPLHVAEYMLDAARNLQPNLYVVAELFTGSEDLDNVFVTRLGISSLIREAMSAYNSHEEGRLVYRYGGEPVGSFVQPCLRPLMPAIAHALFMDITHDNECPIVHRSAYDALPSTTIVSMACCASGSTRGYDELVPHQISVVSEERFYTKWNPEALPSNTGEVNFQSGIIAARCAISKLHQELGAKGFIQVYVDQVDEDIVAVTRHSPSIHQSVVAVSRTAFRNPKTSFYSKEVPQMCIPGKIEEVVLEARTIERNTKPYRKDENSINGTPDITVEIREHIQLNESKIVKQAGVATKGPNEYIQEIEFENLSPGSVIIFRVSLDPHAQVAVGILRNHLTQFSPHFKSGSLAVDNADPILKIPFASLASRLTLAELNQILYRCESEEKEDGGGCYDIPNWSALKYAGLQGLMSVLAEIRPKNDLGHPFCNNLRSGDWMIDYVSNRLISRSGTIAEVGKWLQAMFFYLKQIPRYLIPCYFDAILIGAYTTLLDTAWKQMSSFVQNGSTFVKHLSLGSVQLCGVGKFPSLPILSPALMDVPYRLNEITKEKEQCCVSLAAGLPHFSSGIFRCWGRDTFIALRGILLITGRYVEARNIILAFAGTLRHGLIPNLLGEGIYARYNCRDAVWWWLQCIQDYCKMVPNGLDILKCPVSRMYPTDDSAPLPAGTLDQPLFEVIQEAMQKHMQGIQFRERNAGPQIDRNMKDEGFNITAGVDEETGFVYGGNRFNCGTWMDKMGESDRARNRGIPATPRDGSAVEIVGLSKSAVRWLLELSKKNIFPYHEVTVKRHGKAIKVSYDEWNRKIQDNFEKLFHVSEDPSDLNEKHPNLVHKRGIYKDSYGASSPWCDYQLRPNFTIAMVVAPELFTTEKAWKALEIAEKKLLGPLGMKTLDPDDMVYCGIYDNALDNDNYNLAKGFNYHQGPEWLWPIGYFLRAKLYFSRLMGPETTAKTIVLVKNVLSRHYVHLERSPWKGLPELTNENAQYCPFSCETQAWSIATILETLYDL
UniProt P33991: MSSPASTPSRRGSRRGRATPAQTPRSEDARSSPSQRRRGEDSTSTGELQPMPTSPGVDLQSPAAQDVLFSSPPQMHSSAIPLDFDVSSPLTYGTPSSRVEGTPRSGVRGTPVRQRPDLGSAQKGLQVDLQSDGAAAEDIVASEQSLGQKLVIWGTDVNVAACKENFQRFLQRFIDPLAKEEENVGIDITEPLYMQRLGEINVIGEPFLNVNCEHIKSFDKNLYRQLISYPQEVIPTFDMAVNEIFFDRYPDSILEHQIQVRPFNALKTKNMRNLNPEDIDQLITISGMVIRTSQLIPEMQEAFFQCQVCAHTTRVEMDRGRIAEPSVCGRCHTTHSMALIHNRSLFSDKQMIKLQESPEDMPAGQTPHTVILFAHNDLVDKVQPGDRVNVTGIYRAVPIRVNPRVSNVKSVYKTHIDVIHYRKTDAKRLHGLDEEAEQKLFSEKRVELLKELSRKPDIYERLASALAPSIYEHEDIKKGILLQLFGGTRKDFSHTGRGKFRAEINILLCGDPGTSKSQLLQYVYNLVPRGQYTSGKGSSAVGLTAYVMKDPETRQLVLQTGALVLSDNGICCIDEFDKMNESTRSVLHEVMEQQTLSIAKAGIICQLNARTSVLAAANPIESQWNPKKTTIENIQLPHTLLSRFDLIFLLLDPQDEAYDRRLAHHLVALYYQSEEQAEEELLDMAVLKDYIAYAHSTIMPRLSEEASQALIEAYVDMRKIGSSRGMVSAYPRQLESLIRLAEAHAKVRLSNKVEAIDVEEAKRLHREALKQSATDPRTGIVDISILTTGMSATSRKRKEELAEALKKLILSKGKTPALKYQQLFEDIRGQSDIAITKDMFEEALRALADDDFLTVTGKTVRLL
UniProt P22059, whole entry: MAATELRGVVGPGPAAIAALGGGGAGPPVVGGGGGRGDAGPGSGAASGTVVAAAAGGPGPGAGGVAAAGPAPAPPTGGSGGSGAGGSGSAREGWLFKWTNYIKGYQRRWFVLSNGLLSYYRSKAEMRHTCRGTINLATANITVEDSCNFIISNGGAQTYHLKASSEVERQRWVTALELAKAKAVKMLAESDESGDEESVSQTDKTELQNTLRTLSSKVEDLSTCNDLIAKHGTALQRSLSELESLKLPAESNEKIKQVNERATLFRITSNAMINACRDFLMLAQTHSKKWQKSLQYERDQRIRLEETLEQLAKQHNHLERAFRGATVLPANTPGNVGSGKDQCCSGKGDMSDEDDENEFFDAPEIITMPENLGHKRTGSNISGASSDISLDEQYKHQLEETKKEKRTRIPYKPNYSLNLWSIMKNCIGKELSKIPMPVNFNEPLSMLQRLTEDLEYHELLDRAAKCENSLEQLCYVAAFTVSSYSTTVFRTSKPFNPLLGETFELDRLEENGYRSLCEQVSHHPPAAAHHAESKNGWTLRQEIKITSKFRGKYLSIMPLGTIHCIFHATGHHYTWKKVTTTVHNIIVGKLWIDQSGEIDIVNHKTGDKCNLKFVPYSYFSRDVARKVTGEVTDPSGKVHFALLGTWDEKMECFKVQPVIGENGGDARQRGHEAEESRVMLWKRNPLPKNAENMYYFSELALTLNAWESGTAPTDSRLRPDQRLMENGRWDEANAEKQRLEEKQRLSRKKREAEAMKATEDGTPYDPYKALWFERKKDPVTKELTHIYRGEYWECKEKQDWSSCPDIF
UniProt P21912: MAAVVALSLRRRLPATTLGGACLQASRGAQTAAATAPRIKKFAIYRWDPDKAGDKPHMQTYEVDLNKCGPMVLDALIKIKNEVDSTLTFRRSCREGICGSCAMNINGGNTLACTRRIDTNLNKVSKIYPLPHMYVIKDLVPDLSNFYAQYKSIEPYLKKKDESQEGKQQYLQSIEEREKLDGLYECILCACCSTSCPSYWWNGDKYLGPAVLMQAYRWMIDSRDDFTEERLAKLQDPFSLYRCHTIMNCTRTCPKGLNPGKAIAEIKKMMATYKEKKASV
UniProt P18433: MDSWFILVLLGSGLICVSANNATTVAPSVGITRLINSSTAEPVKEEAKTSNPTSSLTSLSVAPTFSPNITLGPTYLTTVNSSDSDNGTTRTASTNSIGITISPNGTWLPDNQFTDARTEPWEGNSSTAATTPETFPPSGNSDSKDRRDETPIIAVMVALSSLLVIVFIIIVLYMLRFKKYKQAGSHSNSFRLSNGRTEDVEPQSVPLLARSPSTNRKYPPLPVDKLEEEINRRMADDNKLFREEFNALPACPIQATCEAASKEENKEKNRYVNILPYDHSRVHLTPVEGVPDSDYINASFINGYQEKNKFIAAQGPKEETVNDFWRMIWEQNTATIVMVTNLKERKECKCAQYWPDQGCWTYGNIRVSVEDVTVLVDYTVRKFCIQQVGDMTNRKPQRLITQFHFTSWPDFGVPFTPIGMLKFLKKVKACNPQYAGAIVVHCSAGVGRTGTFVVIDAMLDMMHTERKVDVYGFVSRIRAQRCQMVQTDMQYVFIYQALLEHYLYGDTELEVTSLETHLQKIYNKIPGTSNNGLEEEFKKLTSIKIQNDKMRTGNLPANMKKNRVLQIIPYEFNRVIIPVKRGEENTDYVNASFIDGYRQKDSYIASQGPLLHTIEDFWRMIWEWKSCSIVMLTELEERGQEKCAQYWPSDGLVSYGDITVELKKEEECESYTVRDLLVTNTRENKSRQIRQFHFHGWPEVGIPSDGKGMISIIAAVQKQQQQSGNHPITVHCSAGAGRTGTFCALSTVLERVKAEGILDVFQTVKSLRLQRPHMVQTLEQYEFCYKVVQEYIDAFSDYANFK
UniProt P30419: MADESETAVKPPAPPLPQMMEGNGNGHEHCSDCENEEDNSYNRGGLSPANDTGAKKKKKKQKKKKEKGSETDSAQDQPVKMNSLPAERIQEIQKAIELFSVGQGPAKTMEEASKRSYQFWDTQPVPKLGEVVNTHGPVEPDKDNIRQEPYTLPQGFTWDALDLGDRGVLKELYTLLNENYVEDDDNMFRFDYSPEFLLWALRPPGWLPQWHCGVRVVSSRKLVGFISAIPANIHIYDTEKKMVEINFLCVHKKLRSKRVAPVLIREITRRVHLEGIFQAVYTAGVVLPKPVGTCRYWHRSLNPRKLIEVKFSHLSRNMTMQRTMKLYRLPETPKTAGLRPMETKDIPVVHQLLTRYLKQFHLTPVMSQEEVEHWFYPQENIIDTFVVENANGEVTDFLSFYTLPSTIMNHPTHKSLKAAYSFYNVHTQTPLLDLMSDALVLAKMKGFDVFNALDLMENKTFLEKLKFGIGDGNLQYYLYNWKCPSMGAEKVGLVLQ
UniProt P19447: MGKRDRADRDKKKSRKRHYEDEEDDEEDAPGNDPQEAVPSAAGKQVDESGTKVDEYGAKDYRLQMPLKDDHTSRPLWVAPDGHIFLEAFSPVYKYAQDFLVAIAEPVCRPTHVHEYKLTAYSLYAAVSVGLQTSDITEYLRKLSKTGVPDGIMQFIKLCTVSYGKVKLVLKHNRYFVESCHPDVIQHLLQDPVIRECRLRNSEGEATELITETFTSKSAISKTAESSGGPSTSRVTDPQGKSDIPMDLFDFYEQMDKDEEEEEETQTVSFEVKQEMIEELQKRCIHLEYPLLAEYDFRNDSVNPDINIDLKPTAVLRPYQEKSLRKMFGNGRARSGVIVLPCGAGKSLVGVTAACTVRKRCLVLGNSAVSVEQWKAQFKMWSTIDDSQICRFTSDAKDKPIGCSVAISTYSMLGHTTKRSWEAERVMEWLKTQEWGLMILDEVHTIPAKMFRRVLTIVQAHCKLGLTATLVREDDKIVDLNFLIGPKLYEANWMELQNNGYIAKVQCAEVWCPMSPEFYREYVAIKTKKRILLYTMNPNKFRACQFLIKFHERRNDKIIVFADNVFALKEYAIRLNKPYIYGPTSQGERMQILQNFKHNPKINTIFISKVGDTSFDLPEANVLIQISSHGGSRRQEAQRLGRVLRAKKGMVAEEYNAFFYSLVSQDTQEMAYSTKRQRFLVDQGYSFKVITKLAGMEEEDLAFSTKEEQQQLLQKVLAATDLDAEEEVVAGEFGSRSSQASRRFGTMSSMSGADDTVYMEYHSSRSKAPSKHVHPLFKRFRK
UniProt P24752: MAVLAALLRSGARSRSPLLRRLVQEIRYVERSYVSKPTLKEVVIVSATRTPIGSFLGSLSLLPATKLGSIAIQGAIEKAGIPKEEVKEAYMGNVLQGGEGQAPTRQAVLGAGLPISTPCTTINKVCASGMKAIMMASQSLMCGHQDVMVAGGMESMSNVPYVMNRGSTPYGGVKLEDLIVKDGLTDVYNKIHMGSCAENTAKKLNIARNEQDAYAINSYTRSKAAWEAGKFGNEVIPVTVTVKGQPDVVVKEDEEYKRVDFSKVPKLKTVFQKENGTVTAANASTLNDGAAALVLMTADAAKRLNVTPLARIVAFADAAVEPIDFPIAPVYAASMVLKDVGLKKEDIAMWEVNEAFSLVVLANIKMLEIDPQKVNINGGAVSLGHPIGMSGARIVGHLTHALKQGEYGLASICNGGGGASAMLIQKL

Compound: Nc1ncnc2c1ncn2[C@@H]1O[C@H](COP(=O)(O)OP(=O)(O)NP(=O)(O)O)[C@@H](O)[C@H]1O [adenylyl imidodiphosphate]
Test: NP40-soluble protein abundance relative to vehicle (solubility fold change) (ratio); higher = more soluble protein in presence of AMP-PNP
Method in brief: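 In three independent experiments, Jurkat crude lysate made by Dounce homogenisation was treated for 10 min at room temperature and then 3 min at 37 °C with eight concentrations ranging from 0.1 to 10 mM. It was then solubilised with 0.8% NP40 plus benzonase for 60 min at 4 °C and ultracentrifuged. The supernatant was TMT-labelled for LC-MS/MS, and each value is the fold change against the detergent-processed vehicle for the same replicate, using vsn-normalised intensities.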

Target	NP40-soluble protein abundance (concentration: 1mM)	NP40-soluble protein abundance (concentration: 2mM)	NP40-soluble protein abundance (concentration: 4mM)	NP40-soluble protein abundance (concentration: 6mM)	NP40-soluble protein abundance (concentration: 8mM)	NP40-soluble protein abundance (concentration: 10mM)
AKT1 (UniProt P31749)	0.989 ± 0.048	0.97 ± 0.024	1.02 ± 0.025	1.03 ± 0.048	1.02 ± 0.044	1.06 ± 0.052
CHML (UniProt P26374)	0.984 ± 0.012	1 ± 0.019	1.01 ± 0.048	0.983 ± 0.018	0.979 ± 0.028	0.9504 ± 0.0073
PSMB4 (UniProt P28070)	0.931 ± 0.043	0.905 ± 0.048	0.918 ± 0.096	0.971 ± 0.046	0.968 ± 0.071	1 ± 0.13
PSMB6 (UniProt P28072)	0.934 ± 0.038	0.926 ± 0.061	0.898 ± 0.064	0.917 ± 0.086	0.904 ± 0.094	0.914 ± 0.11
SPR (UniProt P35270)	1.02 ± 0.015	1.07 ± 0.063	1.02 ± 0.03	0.985 ± 0.01	0.981 ± 0.019	1.01 ± 0.021
UniProt P25054 and related entries	0.982 ± 0.042	1.04 ± 0.029	1.01 ± 0.055	1 ± 0.044	0.994 ± 0.05	1.01 ± 0.022
PRKAR1B (UniProt P31321)	1.036 ± 0.0019	1.03 ± 0.054	1.05 ± 0.062	1.01 ± 0.049	1.07 ± 0.052	1.02 ± 0.04
UniProt P29353 and related entries	1.02 ± 0.044	1.02 ± 0.022	1.01 ± 0.035	1.01 ± 0.065	0.997 ± 0.056	1 ± 0.059
UniProt P23469 and related entries	0.975 ± 0.031	0.942 ± 0.042	0.939 ± 0.029	0.941 ± 0.01	0.966 ± 0.024	0.907 ± 0.014
UniProt P25098	1.013 ± 0.0097	0.985 ± 0.061	0.994 ± 0.028	0.982 ± 0.035	0.987 ± 0.03	0.979 ± 0.057
AGL (UniProt P35573)	1.04 ± 0.077	0.999 ± 0.11	1.1 ± 0.12	1.08 ± 0.16	1.17 ± 0.17	1.18 ± 0.23
PRKCH (UniProt P24723)	1.01 ± 0.025	0.977 ± 0.037	1.04 ± 0.016	1.04 ± 0.067	1.06 ± 0.03	1.05 ± 0.025
ABCD1 (UniProt P33897)	0.999 ± 0.022	0.967 ± 0.041	1.014 ± 0.006	0.9882 ± 0.0083	1.01 ± 0.025	0.991 ± 0.024
VDAC1 (UniProt P21796)	0.99 ± 0.034	0.955 ± 0.017	0.966 ± 0.032	1.03 ± 0.063	1.03 ± 0.042	1.03 ± 0.045
UniProt P25685 and related entries	1.09 ± 0.044	1.06 ± 0.033	1.07 ± 0.057	1.03 ± 0.015	1.05 ± 0.035	1.06 ± 0.067
RPL4 (UniProt P36578)	0.977 ± 0.13	0.988 ± 0.084	0.929 ± 0.17	0.892 ± 0.17	0.751 ± 0.067	0.982 ± 0.29
UniProt P18615	1.04 ± 0.017	1.08 ± 0.04	1.07 ± 0.012	1.05 ± 0.007	1.032 ± 0.0094	1.08 ± 0.016
MCM4 (UniProt P33991)	0.975 ± 0.036	0.925 ± 0.054	0.943 ± 0.049	0.942 ± 0.043	0.96 ± 0.052	0.933 ± 0.088
PSMC2 (UniProt P35998)	0.942 ± 0.053	0.927 ± 0.05	0.907 ± 0.086	0.919 ± 0.084	0.908 ± 0.072	0.928 ± 0.12
UniProt P29590 and related entries	1.01 ± 0.029	1.05 ± 0.049	0.9911 ± 0.007	0.9989 ± 0.0058	0.968 ± 0.012	0.991 ± 0.013

Target	NP40-soluble protein abundance (concentration: 1mM)	NP40-soluble protein abundance (concentration: 2mM)	NP40-soluble protein abundance (concentration: 4mM)	NP40-soluble protein abundance (concentration: 6mM)	NP40-soluble protein abundance (concentration: 8mM)	NP40-soluble protein abundance (concentration: 10mM)
UniProt P34896 and related entries	1.01 ± 0.029	0.928 ± 0.077	0.964 ± 0.024	0.9644 ± 0.009	0.976 ± 0.028	0.95 ± 0.047
UniProt P19022 and related entries	0.971 ± 0.013	1.03 ± 0.1	1.02 ± 0.014	0.985 ± 0.038	0.987 ± 0.067	0.965 ± 0.033
UniProt P26358 and related entries	1.02 ± 0.013	1.017 ± 0.0047	1.011 ± 0.0092	1.015 ± 0.008	1.01 ± 0.0058	1.03 ± 0.031
HIBADH (UniProt P31937)	1.04 ± 0.041	1.06 ± 0.044	1.03 ± 0.033	0.993 ± 0.011	0.998 ± 0.0079	0.989 ± 0.039
UniProt P21675 and related entries	1 ± 0.03	1.04 ± 0.029	1.04 ± 0.044	1.03 ± 0.074	1.01 ± 0.074	1.06 ± 0.11
UniProt P16989 and related entries	0.94 ± 0.041	0.983 ± 0.11	0.916 ± 0.079	0.895 ± 0.076	0.859 ± 0.095	0.852 ± 0.087
ATP6V1E1 (UniProt P36543)	0.969 ± 0.031	0.968 ± 0.018	0.921 ± 0.026	0.935 ± 0.025	0.925 ± 0.025	0.905 ± 0.048
RPL7 (UniProt P18124)	0.966 ± 0.094	0.953 ± 0.039	0.962 ± 0.07	0.895 ± 0.056	0.902 ± 0.097	0.985 ± 0.024
OSBP (UniProt P22059)	0.977 ± 0.025	0.95 ± 0.041	0.947 ± 0.025	0.926 ± 0.025	0.91 ± 0.02	0.892 ± 0.025
UniProt P20340-2	1.02 ± 0.031	0.958 ± 0.049	0.991 ± 0.053	0.995 ± 0.049	1.01 ± 0.016	1.01 ± 0.068
GTF2E1 (UniProt P29083)	1.04 ± 0.021	1.1 ± 0.04	1.06 ± 0.016	1.05 ± 0.012	1.04 ± 0.035	1.07 ± 0.048
SDHB (UniProt P21912)	0.976 ± 0.045	1 ± 0.056	0.987 ± 0.063	1.03 ± 0.079	1.02 ± 0.075	1.04 ± 0.052
PPP2R1A (UniProt P30153)	0.975 ± 0.011	0.9688 ± 0.0087	0.95 ± 0.019	0.965 ± 0.03	0.958 ± 0.042	0.949 ± 0.034
UniProt P19174 and related entries	0.955 ± 0.052	0.863 ± 0.096	0.957 ± 0.018	0.925 ± 0.019	0.953 ± 0.019	0.9011 ± 0.009
UniProt P31327 and related entries	1 ± 0.016	0.979 ± 0.012	0.9848 ± 0.0059	0.9894 ± 0.0069	0.998 ± 0.03	0.989 ± 0.022
UniProt P35221 and related entries	1.03 ± 0.036	1.04 ± 0.052	0.989 ± 0.026	0.978 ± 0.026	0.953 ± 0.033	0.959 ± 0.019
UQCRC1 (UniProt P31930)	1.018 ± 0.004	1.01 ± 0.015	1.01 ± 0.018	0.97 ± 0.016	0.983 ± 0.012	0.973 ± 0.02
UniProt P36402-5	0.952 ± 0.025	0.984 ± 0.03	0.924 ± 0.046	0.876 ± 0.025	0.8484 ± 0.0036	0.837 ± 0.015
BCKDHB (UniProt P21953)	0.962 ± 0.032	0.904 ± 0.12	0.993 ± 0.056	0.952 ± 0.055	0.998 ± 0.018	0.95 ± 0.046
IGFBP2 (UniProt P18065)	1.03 ± 0.034	1.03 ± 0.058	1.01 ± 0.067	0.966 ± 0.0077	0.991 ± 0.021	0.957 ± 0.014

Five records drawn at random from the list so far, as already listed:
Target	NP40-soluble protein abundance (concentration: 1mM)	NP40-soluble protein abundance (concentration: 2mM)	NP40-soluble protein abundance (concentration: 4mM)	NP40-soluble protein abundance (concentration: 6mM)	NP40-soluble protein abundance (concentration: 8mM)	NP40-soluble protein abundance (concentration: 10mM)
OSBP (UniProt P22059)	0.977 ± 0.025	0.95 ± 0.041	0.947 ± 0.025	0.926 ± 0.025	0.91 ± 0.02	0.892 ± 0.025
RPL7 (UniProt P18124)	0.966 ± 0.094	0.953 ± 0.039	0.962 ± 0.07	0.895 ± 0.056	0.902 ± 0.097	0.985 ± 0.024
UniProt P26358 and related entries	1.02 ± 0.013	1.017 ± 0.0047	1.011 ± 0.0092	1.015 ± 0.008	1.01 ± 0.0058	1.03 ± 0.031
PPP2R1A (UniProt P30153)	0.975 ± 0.011	0.9688 ± 0.0087	0.95 ± 0.019	0.965 ± 0.03	0.958 ± 0.042	0.949 ± 0.034
UniProt P36402-5	0.952 ± 0.025	0.984 ± 0.03	0.924 ± 0.046	0.876 ± 0.025	0.8484 ± 0.0036	0.837 ± 0.015

(continued)

Target	NP40-soluble protein abundance (concentration: 1mM)	NP40-soluble protein abundance (concentration: 2mM)	NP40-soluble protein abundance (concentration: 4mM)	NP40-soluble protein abundance (concentration: 6mM)	NP40-soluble protein abundance (concentration: 8mM)	NP40-soluble protein abundance (concentration: 10mM)
UniProt P18433 and related entries	1.029 ± 0.0089	1.03 ± 0.027	1.03 ± 0.032	0.987 ± 0.023	1.02 ± 0.018	1.03 ± 0.036
ATIC (UniProt P31939)	1.01 ± 0.015	0.99 ± 0.057	1.016 ± 0.0081	1.01 ± 0.034	1.01 ± 0.026	1.03 ± 0.05
UniProt P32321 and related entries	1.01 ± 0.017	0.987 ± 0.04	0.98 ± 0.043	1.01 ± 0.039	1.02 ± 0.041	1.01 ± 0.041
COIL (UniProt P38432)	0.989 ± 0.02	1.06 ± 0.013	1.07 ± 0.055	1.09 ± 0.013	1.15 ± 0.047	1.17 ± 0.065
GLDC (UniProt P23378)	0.991 ± 0.042	1.02 ± 0.017	0.974 ± 0.017	0.972 ± 0.043	0.974 ± 0.071	0.969 ± 0.062
NMT1 (UniProt P30419)	1.087 ± 0.0079	1.1 ± 0.015	1.13 ± 0.048	1.16 ± 0.038	1.2 ± 0.019	1.2 ± 0.067
PFKL (UniProt P17858)	1.01 ± 0.044	0.924 ± 0.15	0.993 ± 0.059	0.967 ± 0.035	1.02 ± 0.054	0.94 ± 0.081
TCEA1 (UniProt P23193)	1.02 ± 0.016	1.04 ± 0.032	1.04 ± 0.018	1.03 ± 0.026	1.02 ± 0.026	1.04 ± 0.064
UniProt P36639 and related entries	1 ± 0.037	0.988 ± 0.059	1.09 ± 0.085	1.03 ± 0.022	1.07 ± 0.012	1.06 ± 0.065
RPA1 (UniProt P27694)	0.979 ± 0.038	0.943 ± 0.053	0.972 ± 0.017	0.974 ± 0.027	0.997 ± 0.012	0.9792 ± 0.0062
STOM (UniProt P27105)	0.984 ± 0.012	0.977 ± 0.03	0.962 ± 0.026	0.99 ± 0.03	0.973 ± 0.024	0.948 ± 0.045
ERCC3 (UniProt P19447)	1.03 ± 0.03	1.01 ± 0.057	1.03 ± 0.043	1.03 ± 0.051	1.04 ± 0.052	1.01 ± 0.038
UniProt P30154 and related entries	0.98 ± 0.029	0.992 ± 0.045	0.969 ± 0.046	0.942 ± 0.029	0.907 ± 0.022	0.956 ± 0.029
VARS (UniProt P26640)	0.967 ± 0.037	0.941 ± 0.07	0.945 ± 0.051	0.916 ± 0.07	0.913 ± 0.066	0.902 ± 0.086
ACAT1 (UniProt P24752)	0.977 ± 0.039	0.97 ± 0.027	0.935 ± 0.039	0.982 ± 0.019	0.958 ± 0.033	0.973 ± 0.023
UniProt P38159 and related entries	1.12 ± 0.09	1.34 ± 0.094	1.34 ± 0.037	1.53 ± 0.16	1.58 ± 0.19	1.82 ± 0.16
AK4 (UniProt P27144)	0.968 ± 0.031	1.03 ± 0.074	1.01 ± 0.074	1.09 ± 0.078	1.07 ± 0.036	1.06 ± 0.049
UniProt P22830 and related entries	0.97 ± 0.0094	0.91 ± 0.096	0.948 ± 0.015	0.939 ± 0.022	0.959 ± 0.037	0.893 ± 0.012
UniProt P18583 and related entries	1.03 ± 0.062	1.1 ± 0.0088	1.07 ± 0.087	1.05 ± 0.091	1.01 ± 0.06	1.14 ± 0.11
UniProt P31948 and related entries	1 ± 0.017	1.05 ± 0.052	0.977 ± 0.031	0.939 ± 0.055	0.956 ± 0.03	0.944 ± 0.03
